Assay results reported in the supplement of paper PMC10849652.
Some of the results follow.

Sequences of proteins named here, by UniProt entry; tags and fusion partners are left off. A change or cut given only in a name is not applied to a line headed by its entry.
UniProt Q719H9: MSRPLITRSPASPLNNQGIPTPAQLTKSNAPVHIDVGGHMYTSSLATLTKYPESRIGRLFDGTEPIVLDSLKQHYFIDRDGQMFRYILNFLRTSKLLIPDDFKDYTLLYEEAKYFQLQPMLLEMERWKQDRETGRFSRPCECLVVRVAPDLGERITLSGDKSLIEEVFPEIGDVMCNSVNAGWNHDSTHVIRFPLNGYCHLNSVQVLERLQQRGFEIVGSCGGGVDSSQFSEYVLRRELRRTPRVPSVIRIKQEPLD
UniProt Q969F8, whole entry, looked up: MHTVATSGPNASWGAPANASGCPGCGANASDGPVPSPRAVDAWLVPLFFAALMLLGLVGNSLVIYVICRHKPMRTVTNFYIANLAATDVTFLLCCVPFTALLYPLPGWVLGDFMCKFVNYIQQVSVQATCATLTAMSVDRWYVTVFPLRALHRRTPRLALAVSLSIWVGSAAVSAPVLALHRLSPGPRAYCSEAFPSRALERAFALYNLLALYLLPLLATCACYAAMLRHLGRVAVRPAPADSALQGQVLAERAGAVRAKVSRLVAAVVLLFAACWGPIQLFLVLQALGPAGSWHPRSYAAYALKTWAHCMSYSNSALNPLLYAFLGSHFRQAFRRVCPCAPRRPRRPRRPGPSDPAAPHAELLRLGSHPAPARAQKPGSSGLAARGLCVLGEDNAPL
UniProt Q13351: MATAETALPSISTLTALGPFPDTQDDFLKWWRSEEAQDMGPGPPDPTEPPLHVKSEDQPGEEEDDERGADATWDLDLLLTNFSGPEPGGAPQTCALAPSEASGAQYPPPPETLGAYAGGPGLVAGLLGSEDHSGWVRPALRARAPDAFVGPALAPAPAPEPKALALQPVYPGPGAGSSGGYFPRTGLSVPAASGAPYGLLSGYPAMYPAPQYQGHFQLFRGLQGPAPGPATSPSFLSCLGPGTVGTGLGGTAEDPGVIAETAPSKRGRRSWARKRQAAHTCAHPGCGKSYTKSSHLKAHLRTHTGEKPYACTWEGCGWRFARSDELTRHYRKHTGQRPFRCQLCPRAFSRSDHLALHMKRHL
UniProt Q6P597: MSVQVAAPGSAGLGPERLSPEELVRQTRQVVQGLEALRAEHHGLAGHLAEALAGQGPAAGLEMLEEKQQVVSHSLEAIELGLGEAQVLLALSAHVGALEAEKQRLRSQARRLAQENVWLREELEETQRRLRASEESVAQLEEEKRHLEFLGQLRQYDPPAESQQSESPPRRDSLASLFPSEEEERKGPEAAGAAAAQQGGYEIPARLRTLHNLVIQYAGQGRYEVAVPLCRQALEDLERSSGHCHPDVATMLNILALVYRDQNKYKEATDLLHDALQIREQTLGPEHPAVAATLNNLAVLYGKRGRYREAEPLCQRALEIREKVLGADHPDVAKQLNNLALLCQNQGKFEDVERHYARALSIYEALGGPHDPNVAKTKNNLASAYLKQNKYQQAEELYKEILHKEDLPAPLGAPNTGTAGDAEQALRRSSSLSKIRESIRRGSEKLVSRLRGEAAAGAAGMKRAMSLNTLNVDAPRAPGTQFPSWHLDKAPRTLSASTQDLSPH
UniProt O95279: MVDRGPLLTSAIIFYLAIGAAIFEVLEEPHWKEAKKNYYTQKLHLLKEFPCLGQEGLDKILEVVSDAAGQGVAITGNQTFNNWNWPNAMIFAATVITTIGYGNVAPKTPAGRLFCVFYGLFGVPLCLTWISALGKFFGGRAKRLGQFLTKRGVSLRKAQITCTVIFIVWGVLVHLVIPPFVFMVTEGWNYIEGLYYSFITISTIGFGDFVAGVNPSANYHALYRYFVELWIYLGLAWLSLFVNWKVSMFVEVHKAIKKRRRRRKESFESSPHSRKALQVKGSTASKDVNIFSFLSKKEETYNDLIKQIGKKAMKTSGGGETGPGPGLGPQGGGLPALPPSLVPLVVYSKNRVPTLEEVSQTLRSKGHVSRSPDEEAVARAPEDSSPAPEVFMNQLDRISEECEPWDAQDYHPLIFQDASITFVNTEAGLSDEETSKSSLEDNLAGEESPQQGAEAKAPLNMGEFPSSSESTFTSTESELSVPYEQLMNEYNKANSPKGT
UniProt Q8IXQ5, whole entry, looked up: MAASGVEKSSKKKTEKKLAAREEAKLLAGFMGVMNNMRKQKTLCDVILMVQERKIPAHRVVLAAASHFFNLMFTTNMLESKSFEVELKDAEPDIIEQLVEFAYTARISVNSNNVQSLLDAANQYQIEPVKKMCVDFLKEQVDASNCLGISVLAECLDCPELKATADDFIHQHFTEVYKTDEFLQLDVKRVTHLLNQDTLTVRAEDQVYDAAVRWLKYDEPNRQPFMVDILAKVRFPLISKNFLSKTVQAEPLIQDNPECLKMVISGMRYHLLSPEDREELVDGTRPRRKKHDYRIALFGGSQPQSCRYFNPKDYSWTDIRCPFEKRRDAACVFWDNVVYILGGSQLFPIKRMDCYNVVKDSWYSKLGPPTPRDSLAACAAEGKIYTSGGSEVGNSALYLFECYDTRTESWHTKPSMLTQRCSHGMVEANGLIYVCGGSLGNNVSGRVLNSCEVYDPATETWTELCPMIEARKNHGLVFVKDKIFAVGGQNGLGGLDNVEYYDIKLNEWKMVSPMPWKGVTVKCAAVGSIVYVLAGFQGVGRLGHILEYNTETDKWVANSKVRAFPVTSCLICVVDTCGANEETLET
UniProt Q9BVG8: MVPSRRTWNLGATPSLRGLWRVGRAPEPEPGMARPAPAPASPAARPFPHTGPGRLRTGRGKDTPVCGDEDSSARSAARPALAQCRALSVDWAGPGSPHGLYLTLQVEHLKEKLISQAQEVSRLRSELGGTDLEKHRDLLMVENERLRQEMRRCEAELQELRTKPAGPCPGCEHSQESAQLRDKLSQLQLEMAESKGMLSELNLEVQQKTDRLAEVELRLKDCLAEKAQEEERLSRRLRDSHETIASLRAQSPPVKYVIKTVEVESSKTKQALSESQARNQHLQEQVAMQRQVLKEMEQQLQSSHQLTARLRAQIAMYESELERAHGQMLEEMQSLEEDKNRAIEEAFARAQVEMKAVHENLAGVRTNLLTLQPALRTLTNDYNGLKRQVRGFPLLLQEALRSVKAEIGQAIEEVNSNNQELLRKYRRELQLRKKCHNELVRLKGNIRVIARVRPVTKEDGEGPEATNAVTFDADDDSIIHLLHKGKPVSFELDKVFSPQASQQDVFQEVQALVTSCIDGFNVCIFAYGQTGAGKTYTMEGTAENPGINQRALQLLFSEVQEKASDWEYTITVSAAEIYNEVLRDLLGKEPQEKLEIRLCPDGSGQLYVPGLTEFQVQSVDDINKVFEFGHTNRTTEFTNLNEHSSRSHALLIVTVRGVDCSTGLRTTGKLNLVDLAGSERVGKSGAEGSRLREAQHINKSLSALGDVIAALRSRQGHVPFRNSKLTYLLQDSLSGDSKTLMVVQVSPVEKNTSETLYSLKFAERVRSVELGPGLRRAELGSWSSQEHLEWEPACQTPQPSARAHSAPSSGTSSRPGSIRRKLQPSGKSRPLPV
UniProt O60333: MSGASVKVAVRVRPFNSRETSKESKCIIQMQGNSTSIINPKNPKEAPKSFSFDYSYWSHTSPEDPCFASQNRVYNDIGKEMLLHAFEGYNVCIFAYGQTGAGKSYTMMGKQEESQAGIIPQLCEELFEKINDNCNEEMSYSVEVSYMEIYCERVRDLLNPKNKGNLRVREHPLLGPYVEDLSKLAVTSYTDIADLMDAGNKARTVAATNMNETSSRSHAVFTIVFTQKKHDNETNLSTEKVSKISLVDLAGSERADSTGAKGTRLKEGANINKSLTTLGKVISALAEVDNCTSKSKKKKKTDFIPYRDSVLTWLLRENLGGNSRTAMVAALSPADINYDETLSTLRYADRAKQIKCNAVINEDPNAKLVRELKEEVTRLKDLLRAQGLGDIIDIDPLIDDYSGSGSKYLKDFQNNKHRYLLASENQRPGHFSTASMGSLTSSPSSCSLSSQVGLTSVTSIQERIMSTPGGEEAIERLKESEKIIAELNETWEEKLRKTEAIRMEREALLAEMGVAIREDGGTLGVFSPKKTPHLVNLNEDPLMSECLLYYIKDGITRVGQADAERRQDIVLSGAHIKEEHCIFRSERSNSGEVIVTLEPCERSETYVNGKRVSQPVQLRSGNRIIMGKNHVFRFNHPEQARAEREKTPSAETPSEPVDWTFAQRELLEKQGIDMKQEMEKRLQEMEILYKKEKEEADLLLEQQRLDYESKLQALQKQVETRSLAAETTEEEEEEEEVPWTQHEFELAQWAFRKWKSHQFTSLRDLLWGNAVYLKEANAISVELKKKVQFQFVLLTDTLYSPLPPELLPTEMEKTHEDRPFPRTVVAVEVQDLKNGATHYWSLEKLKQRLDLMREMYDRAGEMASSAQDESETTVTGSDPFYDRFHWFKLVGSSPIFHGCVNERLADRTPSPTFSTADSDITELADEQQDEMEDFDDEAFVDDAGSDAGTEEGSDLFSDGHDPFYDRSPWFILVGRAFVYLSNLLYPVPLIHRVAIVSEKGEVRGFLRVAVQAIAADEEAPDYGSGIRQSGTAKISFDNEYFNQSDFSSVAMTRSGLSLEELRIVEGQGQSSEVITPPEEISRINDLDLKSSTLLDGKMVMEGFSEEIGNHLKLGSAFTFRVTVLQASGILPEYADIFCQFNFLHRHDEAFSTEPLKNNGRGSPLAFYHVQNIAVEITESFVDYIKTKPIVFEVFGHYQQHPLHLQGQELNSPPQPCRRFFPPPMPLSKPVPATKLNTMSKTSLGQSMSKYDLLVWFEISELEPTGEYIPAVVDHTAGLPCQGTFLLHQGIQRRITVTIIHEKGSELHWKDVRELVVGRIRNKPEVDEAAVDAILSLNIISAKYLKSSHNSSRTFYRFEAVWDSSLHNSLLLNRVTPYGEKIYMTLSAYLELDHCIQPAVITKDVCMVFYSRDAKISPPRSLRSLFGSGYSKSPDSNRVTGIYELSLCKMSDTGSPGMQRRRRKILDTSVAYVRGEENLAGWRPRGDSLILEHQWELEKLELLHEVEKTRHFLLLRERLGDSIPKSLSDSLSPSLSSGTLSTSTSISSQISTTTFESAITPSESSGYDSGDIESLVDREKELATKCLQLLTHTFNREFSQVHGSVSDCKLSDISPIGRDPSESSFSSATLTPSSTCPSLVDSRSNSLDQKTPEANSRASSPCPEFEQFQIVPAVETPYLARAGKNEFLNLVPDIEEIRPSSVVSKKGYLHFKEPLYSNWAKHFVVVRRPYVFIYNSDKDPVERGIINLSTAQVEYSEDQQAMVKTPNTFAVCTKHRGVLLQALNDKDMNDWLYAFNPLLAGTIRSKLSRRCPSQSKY
UniProt Q96L93: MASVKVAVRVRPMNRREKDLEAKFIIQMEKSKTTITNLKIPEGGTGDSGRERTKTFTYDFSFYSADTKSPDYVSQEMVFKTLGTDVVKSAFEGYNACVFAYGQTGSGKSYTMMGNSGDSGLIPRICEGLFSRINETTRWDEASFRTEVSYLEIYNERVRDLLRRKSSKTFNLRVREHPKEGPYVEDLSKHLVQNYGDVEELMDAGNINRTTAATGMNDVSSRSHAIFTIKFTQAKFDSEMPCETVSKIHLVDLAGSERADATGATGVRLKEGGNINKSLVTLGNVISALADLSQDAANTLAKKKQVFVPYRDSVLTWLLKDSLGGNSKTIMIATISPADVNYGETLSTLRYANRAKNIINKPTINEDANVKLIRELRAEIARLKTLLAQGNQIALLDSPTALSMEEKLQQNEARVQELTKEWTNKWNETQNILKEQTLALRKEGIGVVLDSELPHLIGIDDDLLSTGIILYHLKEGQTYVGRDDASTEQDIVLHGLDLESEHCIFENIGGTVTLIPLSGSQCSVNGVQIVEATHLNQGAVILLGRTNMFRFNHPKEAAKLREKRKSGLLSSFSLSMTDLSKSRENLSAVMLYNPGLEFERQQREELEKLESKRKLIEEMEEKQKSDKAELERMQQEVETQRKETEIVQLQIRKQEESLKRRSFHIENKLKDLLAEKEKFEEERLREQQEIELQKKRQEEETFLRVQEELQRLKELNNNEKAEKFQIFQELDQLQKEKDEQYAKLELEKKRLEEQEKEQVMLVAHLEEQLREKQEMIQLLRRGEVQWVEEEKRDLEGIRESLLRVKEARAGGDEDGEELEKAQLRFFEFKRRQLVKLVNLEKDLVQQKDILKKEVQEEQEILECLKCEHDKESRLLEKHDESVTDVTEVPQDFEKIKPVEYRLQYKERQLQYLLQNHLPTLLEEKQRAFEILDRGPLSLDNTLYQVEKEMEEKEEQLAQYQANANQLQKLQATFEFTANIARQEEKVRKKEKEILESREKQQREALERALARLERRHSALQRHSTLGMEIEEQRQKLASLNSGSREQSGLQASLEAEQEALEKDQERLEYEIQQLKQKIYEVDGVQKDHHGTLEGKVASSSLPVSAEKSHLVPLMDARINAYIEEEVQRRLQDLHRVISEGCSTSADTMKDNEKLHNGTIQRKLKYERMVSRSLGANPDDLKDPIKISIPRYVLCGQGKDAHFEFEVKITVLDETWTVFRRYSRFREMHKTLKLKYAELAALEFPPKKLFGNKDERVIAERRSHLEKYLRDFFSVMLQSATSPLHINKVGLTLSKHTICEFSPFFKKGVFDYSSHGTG

How the values were obtained:
Experiment in all cases: log2 fold change, soluble protein after heating vs DMSO (PISA); higher = thermal stabilisation; K562 cells, 10 uM, 30 min; active = over 0.2 and 3.5 SD of the protein, either way, in both replicates (recomputed)
[1] = compound: CC1=C(SC2=C1C(=N[C@H](C3=NN=C(N32)C)CC(=O)N)C4=CC=C(C=C4)Cl)C
Procedure, shortened: (§1)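 K562 cells at 2×10^6 cells/mL were treated with 10 μM compound for 30 min. Aliquots were heated for 3 min across 48°C-58°C, pooled, and extracted in PBS with 0.5% NP-40 at 4°C; soluble protein was the supernatant after 21,000xg for 90 min. Soluble protein was quantified by TMTpro 16plex LC-MS/MS with channel sums equalised, and reported as log2 fold change in thermal stability against DMSO controls, with values from duplicates.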

[2] = compound: c1ccc([C@@H]2C[C@H]2NC2CCNCC2)cc1
Procedure, shortened: as §1

[3] = compound: CC1=C2C(=CC=C1)N=C(N(C2=O)C3=CC=CC=C3C)CN4C=NC5=C(N=CN=C54)N
Procedure, shortened: as §1

[4] = compound: Cc1sc2c(c1C)C(c1ccc(Cl)cc1)=N[C@@H](CC(=O)OC(C)(C)C)c1nnc(C)n1-2
Procedure, shortened: as §1

[5] = compound: C1=CC=C(C=C1)[C@H](COC2=CC3=C(C=C2)NC(=O)N3)NC(=O)C4=CC=CN(C4=O)CC5=CC(=C(C=C5)F)F
Procedure, shortened: as §1

Target: KMT2E (UniProt Q8IZD2)
- log2 fold change [1]: inactive: 0.028
- log2 fold change [2]: inactive: 0.003

Target: KDM6A (UniProt O15550)
- log2 fold change [1]: inactive: -0.083
- log2 fold change [3]: inactive: 0.147
- log2 fold change [2]: inactive: -0.036

Target: KNL1 (UniProt Q8NG31)
- log2 fold change [1]: inactive: 0.216
- log2 fold change [4]: inactive: -0.041
- log2 fold change [2]: inactive: -0.099

Target: KIF4A (UniProt O95239)
- log2 fold change [1]: inactive: -0.051
- log2 fold change [3]: inactive: 0.057
- log2 fold change [4]: inactive: -0.009
- log2 fold change [2]: inactive: 0.225

Target: KCTD1 (UniProt Q719H9)
- log2 fold change [3]: inactive: 0.156
- log2 fold change [4]: inactive: 0.029

Target: JOSD1 (UniProt Q15040)
- log2 fold change [1]: inactive: 0.012
- log2 fold change [2]: inactive: 0.107

Target: KDF1 (UniProt Q8NAX2)
- log2 fold change [1]: inactive: 0.08
- log2 fold change [2]: inactive: 0.233

Target: KISS1R (UniProt Q969F8)
- log2 fold change [5]: inactive: 0.016
- log2 fold change [4]: inactive: -0.065

Target: KAT6B (UniProt Q8WYB5)
- log2 fold change [5]: inactive: -0.091
- log2 fold change [3]: inactive: 0.025
- log2 fold change [4]: inactive: 0

Target: KLF1 (UniProt Q13351)
- log2 fold change [5]: inactive: 0.171
- log2 fold change [3]: inactive: -0.065

Target: KLC3 isoform 3 (UniProt Q6P597)
- log2 fold change [4]: inactive: 0.09

Target: KIZ (UniProt Q2M2Z5)
- log2 fold change [1]: inactive: -0.082
- log2 fold change [2]: inactive: 0.453

Target: JMJD8 (UniProt Q96S16)
- log2 fold change [3]: inactive: 0.114

Target: KCNK5 (UniProt O95279)
- log2 fold change [5]: inactive: -0.028
- log2 fold change [1]: inactive: 0.114
- log2 fold change [2]: inactive: -0.054

Target: KCNK1 (UniProt O00180)
- log2 fold change [5]: inactive: -0.02
- log2 fold change [1]: inactive: -0.263
- log2 fold change [2]: inactive: 0.102

Target: KMT2A isoform 3 (UniProt Q03164)
- log2 fold change [1]: inactive: 0.159
- log2 fold change [2]: inactive: -0.069

Target: KATNBL1 (UniProt Q9H079)
- log2 fold change [1]: inactive: 0.046
- log2 fold change [3]: inactive: -0.013
- log2 fold change [4]: inactive: 0.081
- log2 fold change [2]: inactive: -0.043

Target: KDM3A (UniProt Q9Y4C1)
- log2 fold change [1]: inactive: 0.058
- log2 fold change [2]: inactive: -0.15

Target: KAT7 (UniProt O95251)
- log2 fold change [5]: inactive: 0.129
- log2 fold change [3]: inactive: 0.144

Target: JPT2 isoform 2 (UniProt Q9H910)
- log2 fold change [5]: inactive: 0.022
- log2 fold change [3]: inactive: -0.08
- log2 fold change [4]: inactive: 0.053

Target: KIAA0040 (UniProt Q15053)
- log2 fold change [1]: inactive: 0.037
- log2 fold change [3]: inactive: 0.12
- log2 fold change [2]: inactive: 0.144

Target: KDELR3 (UniProt O43731)
- log2 fold change [5]: inactive: 0.095
- log2 fold change [4]: inactive: -0.086

Target: KIAA0754 (UniProt O94854)
- log2 fold change [5]: inactive: 0.136
- log2 fold change [1]: inactive: 0.158
- log2 fold change [4]: inactive: 0.068
- log2 fold change [2]: inactive: -0.165

Target: KLHL7 isoform 3 (UniProt Q8IXQ5)
- log2 fold change [5]: inactive: 0.173
- log2 fold change [1]: inactive: 0.159
- log2 fold change [2]: inactive: 0.229

Target: KIFC3 isoform 6 (UniProt Q9BVG8)
- log2 fold change [5]: inactive: -0.079
- log2 fold change [3]: inactive: 0.128
- log2 fold change [4]: inactive: -0.027

Target: KIF1B isoform 3 (UniProt O60333)
- log2 fold change [3]: inactive: -0.246

Target: KIF16B isoform 2 (UniProt Q96L93)
- log2 fold change [1]: inactive: -0.061
- log2 fold change [2]: inactive: -0.141
